The other results are listed elsewhere or left out. These are further read-outs of the screen, such as a control signal, another cell line or another target. No call is given for them. Compounds called inactive in the main read-out are mostly missing here. Words in brackets tell the shape of the fitted curve; partial curves, single points and poor fits give uncertain potencies.
Test: qHTS Assay for Lipid Storage Modulators in Drosophila S3 Cells;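 on cell number change: cells counted by Cell Tracker Red CMTPX staining in the red channel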
Conditions: BODIPY lipid droplet fluorescence, 18-24 h; for cell number change: measured here: cell count max response, cells fed with added oleic acid
Outline: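 Laser-scanning cytometry quantifies lipid droplet accumulation (500–530 nm total intensity; droplet/cell object ratio) in oleic acid-fed (400 uM added) Drosophila S3 cells treated with a concentration series. 20 uM Triacsin C defined 100% inhibition.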

[1] = measured here: cell number channel AC50, cells fed with added oleic acid
[2] = measured here: lipid fluorescence (Fed channel) AC50, cells fed with added oleic acid

| Compound | cell number change [%] | AC50 [1] | AC50 [2] |
| --- | --- | --- | --- |
| Cc1ccc2ncccc2c1NS(=O)(=O)c1ccccc1 | -38.3 | 1.84 µM [falling, full curve, poor fit] | – |
| CSCC[C@H](NC(=O)OC(C)(C)C)C(=O)N1CCC(C(=O)N[C@@H](C)C(=O)O)CC1 | 26.2 | 0.92 µM [rising, full curve, poor fit] | 18.4 µM [falling, partial curve] |
| O=C(NCc1ccc(F)cc1)C(Cc1ccccc1)NS(=O)(=O)c1cccs1 (stereo not drawn) | 54.2 | 16.4 µM [rising, single point] | 0.206 µM [falling, full curve, poor fit] |
| O=C(/C=C/c1ccccc1)Nc1nnc(-c2ccco2)o1 | 8.68 | – | 1.16 µM [falling, single point] |
| CC(C)C(=O)Nc1ccc2c(c1)nc(CCN1CCN(c3ccccn3)CC1)n2C | 38.3 | 2.06 µM [rising, partial curve, poor fit] | – |
| O=C(c1cc2ccccc2o1)c1cccs1 | -9.78 | – | 29.1 µM [falling, single point] |
| CCOC(=O)CC(NS(=O)(=O)c1ccc2[nH]c(=O)sc2c1)c1ccc(C)cc1 (stereo not drawn) | 14.8 | – | 8.2 µM [falling, single point] |
| CC(=O)c1ccc(OC(C)C)c(CC(C(N)=O)C(N)=O)c1 | – | – | 23.1 µM [falling, partial curve] |
| CC(C)CC(=O)NNC(=S)Nc1ccc(S(N)(=O)=O)cc1 | -49.6 | 29.1 µM [falling, single point] | 29.1 µM [falling, single point] |
| CCOC(=O)N1CCN(C(=O)c2ccc3c(=O)n(CCc4ccc(OC)c(OC)c4)c(=O)[nH]c3c2)CC1 | – | – | 1.46 µM [falling, full curve] |
| CC(Nc1nc(Nc2ccc(F)cc2)nc(SCC(N)=O)n1)c1ccccc1 (stereo not drawn) | -39.8 | 20.6 µM [falling, single point] | 0.651 µM [rising, single point] |
| O=C(CSc1ncccc1C(=O)O)c1ccc2ccccc2c1 | -13.2 | – | – |
| O=C(COC(=O)c1ccccc1C(=O)c1ccc(Cl)cc1)NCC1CCCO1 (stereo not drawn) | 46 | – | – |
| CCCCCCn1cnc2c(c1=O)c1nc3ccccc3nc1n2/N=C/c1ccco1 | 5.59 | – | – |
| Cc1ccc(CCNC(=O)C2CC(=O)N(CCc3ccccc3)C2)cc1 (stereo not drawn) | 35.7 | 0.731 µM [rising, partial curve, poor fit] | 29.1 µM [rising, single point] |
| CC1CN(C(=O)CN2C(=O)NC(C)(c3ccccc3)C2=O)CC(C)O1 (stereo not drawn) | -18.2 | – | 3.66 µM [falling, full curve, poor fit] |
| COc1ccc(S(=O)(=O)NC(C)C(=O)O)cc1 (stereo not drawn) | -100 | 23.1 µM [falling, partial curve] | 1.16 µM [falling, full curve] |
| CCOC(=O)c1ccc(N2C(=O)CC(N3CCN(C(=O)c4ccco4)CC3)C2=O)cc1 (stereo not drawn) | 8.59 | – | 3.66 µM [falling, full curve] |
| CC(Cl)C(=O)Nc1c2c(nn1-c1ccccc1)CSC2 (stereo not drawn) | 21.4 | – | 29.1 µM [rising, single point] |
| O=C(c1ccco1)N1CCN(CCOc2ccc(F)cc2)CC1 | – | 2.06 µM [rising, partial curve, poor fit] | 29.1 µM [falling, single point] |

2 records picked at random from the list so far, as already listed:

| Compound | cell number change [%] | AC50 [1] | AC50 [2] |
| --- | --- | --- | --- |
| CCOC(=O)c1ccc(N2C(=O)CC(N3CCN(C(=O)c4ccco4)CC3)C2=O)cc1 (stereo not drawn) | 8.59 | – | 3.66 µM [falling, full curve] |
| O=C(NCc1ccc(F)cc1)C(Cc1ccccc1)NS(=O)(=O)c1cccs1 (stereo not drawn) | 54.2 | 16.4 µM [rising, single point] | 0.206 µM [falling, full curve, poor fit] |

Next part.

| Compound | cell number change [%] | AC50 [1] | AC50 [2] |
| --- | --- | --- | --- |
| Clc1ccc(Cl)c(OCCCCN2CCNCC2)c1 | 5.25 | – | 29.1 µM [rising, single point] |
| Cc1ccnc(NS(=O)(=O)c2ccccc2)n1 | -14.3 | – | 1.3 µM [falling, full curve, poor fit] |
| O=C(CCc1nc2ccccc2s1)c1ccccc1 | -73.2 | 16.4 µM [falling, single point] | – |
| COc1ccc(CNC(=O)COC(=O)/C=C/c2cccc(Br)c2)cc1OC | -44.7 | 0.92 µM [falling, full curve] | – |
| Cc1ccc(-c2cn(S(=O)(=O)c3ccc(C)cc3)nc2N)cc1 | – | 1.84 µM [rising, partial curve, poor fit] | 2.31 µM [rising, partial curve] |
| O=C(COc1ccccc1)Nc1ccncc1 | -3.22 | – | 6.51 µM [falling, single point] |
| CCc1nn(CCCC(=O)N2CCN(c3ccc(OC)cc3)CC2)c(=O)c2cc3occc3n12 | – | – | 2.31 µM [rising, partial curve] |
| O=C(C[n+]1ccc(C(=O)N/N=C/c2ccc(Cl)cc2Cl)cc1)c1ccccc1 | 117 | 6.51 µM [rising, partial curve] | 1.84 µM [rising, partial curve] |
| Cc1ccnc(NC(=O)CCCc2c[nH]c3ccccc23)c1 | 2.42 | – | – |
| Cc1nnc(SCC(=O)Nc2ccccc2NC(=O)CSc2nnc(C)s2)s1 | -1.85 | – | 0.411 µM [rising, partial curve, poor fit] |
| O=C(Cc1ccsc1)NNC(=O)c1ccccc1Cl | -10 | – | – |
| CCOc1ccc(C(=O)Nc2ccc(NC(=O)c3ccco3)c(Cl)c2)cc1Cl | – | 0.92 µM [rising, partial curve] | 0.164 µM [rising, full curve, poor fit] |
| CCOc1ccc(/C=N/NC(=O)c2csc(C)c2C)c(OCC)c1 | 22.2 | – | 9.2 µM [rising, partial curve] |
| N#Cc1ccccc1S(=O)(=O)N1CCC(C(=O)NCc2ccccc2CN2CCCC2)CC1 | -2.58 | – | 0.092 µM [falling, full curve, poor fit] |
| CCOC(=O)/C=C1\Nc2ccccc2SC1=O | 10.6 | – | 2.06 µM [rising, partial curve] |
| CC(OC(=O)c1ccccc1Br)C(=O)Nc1nc(-c2cccc([N+](=O)[O-])c2)cs1 (stereo not drawn) | 6.99 | – | 0.82 µM [rising, full curve, poor fit] |
| COc1ccc(NS(=O)(=O)c2ccc(OCC(=O)N3CCCC3)cc2)cc1 | – | 0.58 µM [rising, single point] | – |
| CCOC(=O)c1ccc[n+](C(C)C(=O)c2ccc(-c3ccccc3)cc2)c1 (stereo not drawn) | -34.5 | 32.6 µM [falling, single point] | 0.0259 µM [falling, full curve, poor fit] |
| CC(C)(C)OC(=O)CNC(=O)c1nc[nH]c1C(=O)NCc1ccc(CNC(=O)OC(C)(C)C)cc1 | 4.49 | 0.0731 µM [rising, full curve, poor fit] | 29.1 µM [falling, single point] |
| O=C(COc1ccc(Br)cc1Cl)NC1CCCCC1 | -72.3 | 18.4 µM [falling, single point] | – |

Three compounds from above, ordered by SMILES length, falling:

| Compound | cell number change [%] | AC50 [1] | AC50 [2] |
| --- | --- | --- | --- |
| O=C(C[n+]1ccc(C(=O)N/N=C/c2ccc(Cl)cc2Cl)cc1)c1ccccc1 | 117 | 6.51 µM [rising, partial curve] | 1.84 µM [rising, partial curve] |
| COc1ccc(CNC(=O)COC(=O)/C=C/c2cccc(Br)c2)cc1OC | -44.7 | 0.92 µM [falling, full curve] | – |
| Clc1ccc(Cl)c(OCCCCN2CCNCC2)c1 | 5.25 | – | 29.1 µM [rising, single point] |

Remaining list, next part:

| Compound | cell number change [%] | AC50 [1] | AC50 [2] |
| --- | --- | --- | --- |
| Nc1nonc1-n1nnc(C(=O)N/N=C/c2ccccc2)c1CN1CCc2ccccc21 | -10.5 | – | – |
| COc1ccc(/C=N/NC(=O)c2cc3cc(OC)c(OC)cc3[nH]2)cc1 | -9.22 | – | 18.4 µM [falling, single point] |
| O=C(COC(=O)c1ccc[n+]([O-])c1)Nc1c(Br)cc([N+](=O)[O-])cc1Br | 55.5 | – | 2.91 µM [falling, partial curve] |
| Oc1ccc(Cl)cc1CNCc1ccc(C(F)(F)F)cc1 | -87.3 | 29.1 µM [falling, single point] | 18.4 µM [falling, single point] |
| CN(CC(=O)Nc1ccc(Cl)c(C(F)(F)F)c1)C(=O)CCN1C(=O)C2CCCCC2C1=O (stereo not drawn) | 41.7 | 29.1 µM [rising, single point] | – |
| O=C(NC12CC3CC(CC(C3)C1)C2)c1ccc(COc2ccc(Cl)cc2[N+](=O)[O-])o1 | 5.46 | – | 0.00517 µM [falling, full curve, poor fit] |
| CC1(C)CC(=O)c2c(oc3ccc(NS(=O)(=O)c4ccc(C(=O)O)cc4)cc23)C1 | -27.7 | – | – |
| Cn1ncc([N+](=O)[O-])c1C(=O)Nc1ccc(-c2nc3ccccc3o2)cc1 | – | – | 6.51 µM [rising, single point] |
| CC(=O)Nc1ccc2sccc2c1 | 5.35 | – | – |
| CCC(=O)Oc1ccc(C(=O)Nc2cccc(C(=O)NC(C)(C)C)c2)cc1 | 15.8 | – | – |
| N#C/C(=C/c1cn(CC(=O)O)c2ccccc12)C(=O)NCc1ccccc1 | 40.8 | – | – |
| Cc1cc(C)cc(OCC(=O)N/N=C/c2ccc([N+](=O)[O-])o2)c1 | -32.4 | 29.1 µM [falling, single point] | 29.1 µM [falling, single point] |
| Cc1cc(C(=O)COc2ccc(Br)cc2F)c(C)n1C1CC1 | -27.8 | – | 13 µM [falling, partial curve] |
| N#Cc1ccc(NC(=O)Nc2ccc(Oc3ccc(NC(=O)Nc4ccc(C#N)cc4)cc3)cc2)cc1 | -55.4 | 1.84 µM [falling, full curve, poor fit] | 4.61 µM [falling, partial curve] |
| COc1ccc(-c2cc(=O)c3c(OC)c(OC)c(OC)c(OC)c3o2)cc1OC | -24 | – | 20.6 µM [falling, single point] |
| O=C(Nc1ccc(Cl)cc1C(=O)NCCN1CCOCC1)c1ccco1 | 34.1 | 14.6 µM [rising, single point] | – |
| CCOC(=O)C1CCCN(S(=O)(=O)CCNC(=O)c2cccc(OC)c2)C1 (stereo not drawn) | 31 | 32.6 µM [rising, single point] | – |
| O=C(NC1CCCc2ccccc21)C1CCN(S(=O)(=O)N2CCCCCC2)CC1 (stereo not drawn) | -0.697 | 6.51 µM [rising, single point] | – |

Reference: PubChem BioAssay AID2685 (National Center for Advancing Translational Sciences (NCATS), 2010)
